Measured values published in article doi:10.1101/2024.08.22.609157.

Sequences of proteins named here, by UniProt entry; tags and fusion partners are left off.
UniProt P53396: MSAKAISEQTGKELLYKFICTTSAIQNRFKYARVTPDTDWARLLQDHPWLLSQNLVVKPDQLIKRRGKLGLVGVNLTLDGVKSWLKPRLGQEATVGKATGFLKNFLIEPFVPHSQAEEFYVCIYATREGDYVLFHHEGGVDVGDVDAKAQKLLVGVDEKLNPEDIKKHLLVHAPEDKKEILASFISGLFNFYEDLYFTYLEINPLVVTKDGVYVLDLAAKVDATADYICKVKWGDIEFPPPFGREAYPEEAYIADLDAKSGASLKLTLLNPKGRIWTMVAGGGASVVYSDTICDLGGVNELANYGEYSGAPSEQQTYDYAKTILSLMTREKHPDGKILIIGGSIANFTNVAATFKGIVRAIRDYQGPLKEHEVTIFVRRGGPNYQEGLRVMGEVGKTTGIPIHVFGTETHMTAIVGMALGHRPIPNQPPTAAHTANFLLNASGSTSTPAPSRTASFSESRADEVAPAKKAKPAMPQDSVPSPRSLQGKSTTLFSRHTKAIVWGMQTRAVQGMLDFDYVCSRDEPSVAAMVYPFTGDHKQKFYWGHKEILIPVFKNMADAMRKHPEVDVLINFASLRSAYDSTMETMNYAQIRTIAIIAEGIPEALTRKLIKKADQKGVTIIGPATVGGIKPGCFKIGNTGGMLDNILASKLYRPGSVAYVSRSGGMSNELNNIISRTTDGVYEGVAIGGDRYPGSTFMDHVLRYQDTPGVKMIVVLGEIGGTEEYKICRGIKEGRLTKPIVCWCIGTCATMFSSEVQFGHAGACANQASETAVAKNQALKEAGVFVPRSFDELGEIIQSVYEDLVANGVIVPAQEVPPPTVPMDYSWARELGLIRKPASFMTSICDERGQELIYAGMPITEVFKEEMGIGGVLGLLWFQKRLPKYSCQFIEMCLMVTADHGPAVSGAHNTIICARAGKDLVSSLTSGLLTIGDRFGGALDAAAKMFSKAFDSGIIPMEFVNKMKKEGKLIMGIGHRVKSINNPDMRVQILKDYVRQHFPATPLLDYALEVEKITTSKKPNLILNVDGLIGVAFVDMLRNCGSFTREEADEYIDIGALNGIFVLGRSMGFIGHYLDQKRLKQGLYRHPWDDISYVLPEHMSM

Molecular target: MTHFR with threonine 34 changed to alanine, C-terminally Flag-tagged (MTHFR_(T34A)) (human) (UniProt P42898)
Assay: affinity purification with mass spectrometry

binding: binds
Substance: ACLY (from UniProt P53396 1-1101) (enzyme)

No constants are given. Whether binding was seen depends on the method and setting. In cells and extracts the contact can be indirect. Here binding means that the protein was enriched with, or labelled near, the bait; the list need not be complete.
